Results as given in publication PMC5066963.
No constants are given. Whether binding was seen depends on the method and setting. In cells and extracts the contact can be indirect. Some results given as binding are weak or reduced against the parent protein; the word gives no strength.

Amino acid sequences for entries named in this document (tags omitted).
UniProt Q9USK8: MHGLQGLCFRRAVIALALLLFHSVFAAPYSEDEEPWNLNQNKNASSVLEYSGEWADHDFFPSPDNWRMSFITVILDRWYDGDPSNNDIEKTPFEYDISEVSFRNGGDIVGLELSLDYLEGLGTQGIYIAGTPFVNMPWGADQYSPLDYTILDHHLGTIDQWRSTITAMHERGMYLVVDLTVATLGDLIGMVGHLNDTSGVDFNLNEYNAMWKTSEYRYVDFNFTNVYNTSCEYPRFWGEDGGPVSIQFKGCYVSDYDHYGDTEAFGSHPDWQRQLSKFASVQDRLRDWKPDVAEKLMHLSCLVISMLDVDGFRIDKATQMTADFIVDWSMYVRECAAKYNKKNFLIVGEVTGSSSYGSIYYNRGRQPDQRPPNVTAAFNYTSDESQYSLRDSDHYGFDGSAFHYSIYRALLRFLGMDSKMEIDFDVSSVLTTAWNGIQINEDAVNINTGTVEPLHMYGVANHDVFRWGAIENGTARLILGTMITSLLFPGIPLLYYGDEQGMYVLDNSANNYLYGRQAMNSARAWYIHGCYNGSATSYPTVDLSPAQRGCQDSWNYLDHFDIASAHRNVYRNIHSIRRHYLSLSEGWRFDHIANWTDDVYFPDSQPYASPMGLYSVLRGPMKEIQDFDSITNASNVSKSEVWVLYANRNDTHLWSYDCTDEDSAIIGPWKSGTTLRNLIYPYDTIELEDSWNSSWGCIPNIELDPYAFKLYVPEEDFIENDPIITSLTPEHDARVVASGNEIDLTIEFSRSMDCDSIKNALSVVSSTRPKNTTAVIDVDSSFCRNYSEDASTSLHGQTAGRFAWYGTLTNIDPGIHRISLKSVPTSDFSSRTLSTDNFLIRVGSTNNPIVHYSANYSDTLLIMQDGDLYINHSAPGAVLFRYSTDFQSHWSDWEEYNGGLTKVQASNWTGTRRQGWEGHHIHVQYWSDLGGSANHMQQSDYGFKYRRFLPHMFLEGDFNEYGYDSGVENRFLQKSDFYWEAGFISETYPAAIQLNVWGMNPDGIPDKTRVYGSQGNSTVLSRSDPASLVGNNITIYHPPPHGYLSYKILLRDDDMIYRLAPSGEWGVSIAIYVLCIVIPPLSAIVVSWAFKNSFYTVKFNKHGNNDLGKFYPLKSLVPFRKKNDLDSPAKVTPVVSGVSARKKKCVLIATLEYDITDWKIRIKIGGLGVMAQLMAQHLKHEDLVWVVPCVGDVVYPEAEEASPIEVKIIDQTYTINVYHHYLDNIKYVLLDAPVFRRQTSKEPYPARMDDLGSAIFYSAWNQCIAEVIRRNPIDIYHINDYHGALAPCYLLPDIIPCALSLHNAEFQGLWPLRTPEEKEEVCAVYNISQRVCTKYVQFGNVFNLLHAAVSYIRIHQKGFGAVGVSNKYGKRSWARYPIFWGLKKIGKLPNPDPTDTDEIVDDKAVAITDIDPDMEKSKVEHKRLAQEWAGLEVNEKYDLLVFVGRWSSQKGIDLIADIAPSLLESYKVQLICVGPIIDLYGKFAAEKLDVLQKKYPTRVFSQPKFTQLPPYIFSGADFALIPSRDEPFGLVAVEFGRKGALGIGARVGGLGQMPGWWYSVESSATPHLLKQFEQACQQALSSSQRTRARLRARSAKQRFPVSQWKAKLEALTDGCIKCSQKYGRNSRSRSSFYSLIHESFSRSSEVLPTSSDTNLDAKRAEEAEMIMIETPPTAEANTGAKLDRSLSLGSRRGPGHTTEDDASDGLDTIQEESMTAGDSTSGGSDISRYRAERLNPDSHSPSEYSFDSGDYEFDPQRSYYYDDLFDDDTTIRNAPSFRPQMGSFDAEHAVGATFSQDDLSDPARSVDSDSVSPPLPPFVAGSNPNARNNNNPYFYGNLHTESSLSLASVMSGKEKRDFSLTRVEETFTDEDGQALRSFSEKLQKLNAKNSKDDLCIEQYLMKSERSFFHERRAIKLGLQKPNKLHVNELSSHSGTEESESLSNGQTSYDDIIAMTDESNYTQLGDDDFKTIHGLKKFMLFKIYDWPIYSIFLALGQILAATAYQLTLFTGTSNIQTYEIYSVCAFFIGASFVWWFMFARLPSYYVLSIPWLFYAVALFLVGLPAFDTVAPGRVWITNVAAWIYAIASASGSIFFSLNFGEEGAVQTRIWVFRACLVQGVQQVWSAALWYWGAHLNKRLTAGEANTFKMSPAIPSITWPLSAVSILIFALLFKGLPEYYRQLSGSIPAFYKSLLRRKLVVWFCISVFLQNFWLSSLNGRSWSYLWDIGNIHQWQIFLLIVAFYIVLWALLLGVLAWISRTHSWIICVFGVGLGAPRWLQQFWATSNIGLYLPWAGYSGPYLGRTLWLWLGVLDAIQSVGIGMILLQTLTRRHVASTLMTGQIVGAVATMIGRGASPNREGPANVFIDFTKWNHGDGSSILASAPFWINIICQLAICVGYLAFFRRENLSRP
UniProt Q10287: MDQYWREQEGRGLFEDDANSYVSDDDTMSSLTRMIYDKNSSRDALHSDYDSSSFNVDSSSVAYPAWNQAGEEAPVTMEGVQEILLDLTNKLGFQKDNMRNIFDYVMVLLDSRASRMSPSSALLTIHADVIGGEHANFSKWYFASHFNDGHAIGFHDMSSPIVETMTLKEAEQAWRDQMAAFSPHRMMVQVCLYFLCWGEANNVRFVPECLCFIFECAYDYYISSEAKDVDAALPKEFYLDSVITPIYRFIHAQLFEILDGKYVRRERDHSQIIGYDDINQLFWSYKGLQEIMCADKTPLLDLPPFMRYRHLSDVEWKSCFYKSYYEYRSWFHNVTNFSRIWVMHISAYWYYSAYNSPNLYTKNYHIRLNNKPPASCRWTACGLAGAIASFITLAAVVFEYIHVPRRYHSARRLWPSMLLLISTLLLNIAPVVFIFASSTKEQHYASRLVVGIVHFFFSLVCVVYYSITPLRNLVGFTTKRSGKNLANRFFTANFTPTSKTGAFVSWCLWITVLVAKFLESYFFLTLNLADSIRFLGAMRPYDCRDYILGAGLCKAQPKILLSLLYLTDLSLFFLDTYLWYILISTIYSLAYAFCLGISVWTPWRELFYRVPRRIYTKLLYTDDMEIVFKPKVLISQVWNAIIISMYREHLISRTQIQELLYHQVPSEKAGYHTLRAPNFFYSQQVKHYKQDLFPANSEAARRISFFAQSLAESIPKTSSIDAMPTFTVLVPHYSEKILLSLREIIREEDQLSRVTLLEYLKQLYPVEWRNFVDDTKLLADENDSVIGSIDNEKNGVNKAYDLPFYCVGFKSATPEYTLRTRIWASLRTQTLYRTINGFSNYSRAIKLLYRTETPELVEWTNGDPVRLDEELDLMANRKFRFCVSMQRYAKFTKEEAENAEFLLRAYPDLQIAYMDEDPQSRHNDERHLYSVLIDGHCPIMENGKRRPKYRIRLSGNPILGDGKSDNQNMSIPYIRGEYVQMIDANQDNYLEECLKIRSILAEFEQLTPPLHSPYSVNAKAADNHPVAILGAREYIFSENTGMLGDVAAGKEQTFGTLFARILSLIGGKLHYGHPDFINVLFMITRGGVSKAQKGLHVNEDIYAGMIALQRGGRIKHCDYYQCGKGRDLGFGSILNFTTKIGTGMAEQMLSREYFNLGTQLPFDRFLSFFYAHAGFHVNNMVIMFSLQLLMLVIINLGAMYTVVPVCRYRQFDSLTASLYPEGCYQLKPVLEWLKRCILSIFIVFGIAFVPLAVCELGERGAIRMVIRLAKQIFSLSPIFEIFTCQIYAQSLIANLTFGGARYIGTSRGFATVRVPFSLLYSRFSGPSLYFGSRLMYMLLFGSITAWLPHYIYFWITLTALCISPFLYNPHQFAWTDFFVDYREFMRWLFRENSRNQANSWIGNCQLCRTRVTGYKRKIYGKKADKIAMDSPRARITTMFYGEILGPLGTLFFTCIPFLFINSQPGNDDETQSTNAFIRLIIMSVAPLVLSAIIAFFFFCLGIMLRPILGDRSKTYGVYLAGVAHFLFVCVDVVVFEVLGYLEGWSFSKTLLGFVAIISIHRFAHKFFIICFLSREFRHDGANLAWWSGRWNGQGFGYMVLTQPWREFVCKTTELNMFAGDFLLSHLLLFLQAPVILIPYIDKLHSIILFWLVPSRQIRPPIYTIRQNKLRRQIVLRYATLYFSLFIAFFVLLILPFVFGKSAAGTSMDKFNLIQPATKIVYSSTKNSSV

Target: GFP-Ags1p (S. pombe) (UniProt Q9USK8)
Experiment: co-IP; solubilized membrane proteins of S. pombe strains (50 mM Tris-HCl pH 7.5, 5 mM EDTA, 200 mM NaCl, 0.5% Tween 20) immunoprecipitated with anti-GFP antibody and protein A Sepharose at 4°C; blotted with anti-HA

For HA-Bgs1p (from UniProt Q10287 1-1729), the binding was “binds”.
